Consider three molecules from article PMC2905641.

Protein sequences, listed by entry. Tags and fused reporters are not part of them. Lines headed by an entry give the natural chain unless they say otherwise; changes in a name come on top.
UniProt Q92834: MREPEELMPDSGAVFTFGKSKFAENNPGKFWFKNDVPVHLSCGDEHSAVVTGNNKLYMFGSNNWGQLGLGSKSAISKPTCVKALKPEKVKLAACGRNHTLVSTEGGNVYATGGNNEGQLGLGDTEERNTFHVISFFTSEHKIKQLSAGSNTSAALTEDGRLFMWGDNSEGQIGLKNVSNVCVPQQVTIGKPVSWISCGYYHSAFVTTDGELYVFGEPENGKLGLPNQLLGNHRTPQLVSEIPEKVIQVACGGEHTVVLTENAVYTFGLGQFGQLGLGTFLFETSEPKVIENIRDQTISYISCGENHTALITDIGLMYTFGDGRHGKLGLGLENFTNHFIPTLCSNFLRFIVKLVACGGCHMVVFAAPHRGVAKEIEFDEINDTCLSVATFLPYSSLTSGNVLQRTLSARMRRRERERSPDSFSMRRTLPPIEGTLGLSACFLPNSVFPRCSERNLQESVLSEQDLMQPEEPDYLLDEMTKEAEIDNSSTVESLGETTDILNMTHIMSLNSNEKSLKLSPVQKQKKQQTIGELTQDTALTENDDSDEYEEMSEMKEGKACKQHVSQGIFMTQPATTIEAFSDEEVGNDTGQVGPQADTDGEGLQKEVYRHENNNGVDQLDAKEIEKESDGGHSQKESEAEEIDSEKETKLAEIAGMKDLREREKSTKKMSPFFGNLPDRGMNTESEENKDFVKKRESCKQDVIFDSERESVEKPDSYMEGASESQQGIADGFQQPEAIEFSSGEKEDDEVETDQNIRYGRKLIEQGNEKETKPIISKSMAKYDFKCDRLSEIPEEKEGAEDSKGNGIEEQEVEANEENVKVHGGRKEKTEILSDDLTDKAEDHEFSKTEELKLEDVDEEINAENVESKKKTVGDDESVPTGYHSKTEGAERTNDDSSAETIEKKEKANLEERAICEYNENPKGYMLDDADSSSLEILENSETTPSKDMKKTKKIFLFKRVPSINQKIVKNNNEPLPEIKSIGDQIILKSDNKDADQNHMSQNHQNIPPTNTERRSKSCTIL

No constants are given. Whether binding was seen depends on the method and setting. In cells and extracts the contact can be indirect. A result given as binding can be weak or reduced; the word gives no strength.

The test has as its target GST-RLD (RCC1-like domain of RPGR fused to glutathione S-transferase) (UniProt Q92834). Nature of the test: pull-down; GST or GST-RLD purified from E. coli as bait; 35S-labeled in vitro translated proteins as prey; autoradiography; only the target purified.

B1: NPHP4 N-terminal 316 amino acids (N316), 35S-labeled (domain or fragment, UniProt O75161 1-316)
chain: MNDWHRIFTQNVLVPPHPQRARQPWKESTAFQCVLKWLDGPVIRQGVLEVLSEVECHLRVSFFDVTYRHFFGRTWKTTVKPTKRPPSRIVFNEPLYFHTSLNHPHIVAVVEVVAEGKKRDGSLQTLSCGFGILRIFSNQPDSPISASQDKRLRLYHGTPRALLHPLLQDPAEQNRHMTLIENCSLQYTLKPHPALEPAFHLLPENLLVSGLQQIPGLLPAHGESGDALRKPRLQKPITGHLDDLFFTLYPSLEKFEEELLELHVQDHFQEGCGPLDGGALEILERRLRVGVHNGLGFVQRPQVVVLVPEMDVALTR
modifications: 35S-labeled methionine
As to B1, the binding entry is “binds”.

B2: 35S-labeled in vitro translated NPHP4, full length (protein, UniProt O75161 1-1426)
chain: MNDWHRIFTQNVLVPPHPQRARQPWKESTAFQCVLKWLDGPVIRQGVLEVLSEVECHLRVSFFDVTYRHFFGRTWKTTVKPTKRPPSRIVFNEPLYFHTSLNHPHIVAVVEVVAEGKKRDGSLQTLSCGFGILRIFSNQPDSPISASQDKRLRLYHGTPRALLHPLLQDPAEQNRHMTLIENCSLQYTLKPHPALEPAFHLLPENLLVSGLQQIPGLLPAHGESGDALRKPRLQKPITGHLDDLFFTLYPSLEKFEEELLELHVQDHFQEGCGPLDGGALEILERRLRVGVHNGLGFVQRPQVVVLVPEMDVALTRSASFSRKVVSSSKTSSGSQALVLRSRLRLPEMVGHPAFAVIFQLEYVFSSPAGVDGNAASVTSLSNLACMHMVRWAVWNPLLEADSGRVTLPLQGGIQPNPSHCLVYKVPSASMSSEEVKQVESGTLRFQFSLGSEEHLDAPTEPVSGPKVERRPSRKPPTSPSSPPAPVPRVLAAPQNSPVGPGLSISQLAASPRSPTQHCLARPTSQLPHGSQASPAQAQEFPLEAGISHLEADLSQTSLVLETSIAEQLQELPFTPLHAPIVVGTQTRSSAGQPSRASMVLLQSSGFPEILDANKQPAEAVSATEPVTFNPQKEESDCLQSNEMVLQFLAFSRVAQDCRGTSWPKTVYFTFQFYRFPPATTPRLQLVQLDEAGQPSSGALTHILVPVSRDGTFDAGSPGFQLRYMVGPGFLKPGERRCFARYLAVQTLQIDVWDGDSLLLIGSAAVQMKHLLRQGRPAVQASHELEVVATEYEQDNMVVSGDMLGFGRVKPIGVHSVVKGRLHLTLANVGHPCEQKVRGCSTLPPSRSRVISNDGASRFSGGSLLTTGSSRRKHVVQAQKLADVDSELAAMLLTHARQGKGPQDVSRESDATRRRKLERMRSVRLQEAGGDLGRRGTSVLAQQSVRTQHLRDLQVIAAYRERTKAESIASLLSLAITTEHTLHATLGVAEFFEFVLKNPHNTQHTVTVEIDNPELSVIVDSQEWRDFKGAAGLHTPVEEDMFHLRGSLAPQLYLRPHETAHVPFKFQSFSAGQLAMVQASPGLSNEKGMDAVSPWKSSAVPTKHAKVLFRASGGKPIAVLCLTVELQPHVVDQVFRFYHPELSFLKKAIRLPPWHTFPGAPVGMLGEDPPVHVRCSDPNVICETQNVGPGEPRDIFLKVASGPSPEIKDFFVIIYSDRWLATPTQTWQVYLHSLQRVDVSCVAGQLTRLSLVLRGTQTVRKVRAFTSHPQELKTDPKGVFVLPPRGVQDLHVGVRPLRAGSRFVHLNLVDVDCHQLVASWLVCLCCRQPLISKAFEIMLAAGEGKGVNKRITYTNPYPSRRTFHLHSDHPELLRFREDSFQVGGGETYTIGLQFAPSQRVGEEEILIYINDHEDKNEEAFCVKVIYQ
modifications: 35S-labeled methionine
As for B2, the binding entry was “binds”.

B3: NPHP1 amino acids 243–586, 35S-labeled (domain or fragment, UniProt O15259 243-586)
chain: RTDPHWSAVQKAISEAGIFCLVNHVSFCYLIVLMRNRMETVEDTNGSETGFRAWNVQSRGRIFLVSKPVLQINTVDVLTTMGAIPAGFRPSTLSQLLEEGNQFRANYFLQPELMPSQLAFRDLMWDATEGTIRSRPSRISLILTLWSCKMIPLPGMSIQVLSRHVRLCLFDGNKVLSNIHTVRATWQPKKPKTWTFSPQVTRILPCLLDGDCFIRSNSASPDLGILFELGISYIRNSTGERGELSCGWVFLKLFDASGVPIPAKTYELFLNGGTPYEKGIEVDPSISRRAHGSVFYQIMTMRRQPQLLVKLRSLNRRSRNVLSLLPETLIGNMCSIHLLIFYRQ
modifications: 35S-labeled methionine
For B3, the binding result is “binds”.
